This note sets out measurements from article PMC10817939.

Amino acid sequences for entries named in this document (tags omitted).
UniProt O95071: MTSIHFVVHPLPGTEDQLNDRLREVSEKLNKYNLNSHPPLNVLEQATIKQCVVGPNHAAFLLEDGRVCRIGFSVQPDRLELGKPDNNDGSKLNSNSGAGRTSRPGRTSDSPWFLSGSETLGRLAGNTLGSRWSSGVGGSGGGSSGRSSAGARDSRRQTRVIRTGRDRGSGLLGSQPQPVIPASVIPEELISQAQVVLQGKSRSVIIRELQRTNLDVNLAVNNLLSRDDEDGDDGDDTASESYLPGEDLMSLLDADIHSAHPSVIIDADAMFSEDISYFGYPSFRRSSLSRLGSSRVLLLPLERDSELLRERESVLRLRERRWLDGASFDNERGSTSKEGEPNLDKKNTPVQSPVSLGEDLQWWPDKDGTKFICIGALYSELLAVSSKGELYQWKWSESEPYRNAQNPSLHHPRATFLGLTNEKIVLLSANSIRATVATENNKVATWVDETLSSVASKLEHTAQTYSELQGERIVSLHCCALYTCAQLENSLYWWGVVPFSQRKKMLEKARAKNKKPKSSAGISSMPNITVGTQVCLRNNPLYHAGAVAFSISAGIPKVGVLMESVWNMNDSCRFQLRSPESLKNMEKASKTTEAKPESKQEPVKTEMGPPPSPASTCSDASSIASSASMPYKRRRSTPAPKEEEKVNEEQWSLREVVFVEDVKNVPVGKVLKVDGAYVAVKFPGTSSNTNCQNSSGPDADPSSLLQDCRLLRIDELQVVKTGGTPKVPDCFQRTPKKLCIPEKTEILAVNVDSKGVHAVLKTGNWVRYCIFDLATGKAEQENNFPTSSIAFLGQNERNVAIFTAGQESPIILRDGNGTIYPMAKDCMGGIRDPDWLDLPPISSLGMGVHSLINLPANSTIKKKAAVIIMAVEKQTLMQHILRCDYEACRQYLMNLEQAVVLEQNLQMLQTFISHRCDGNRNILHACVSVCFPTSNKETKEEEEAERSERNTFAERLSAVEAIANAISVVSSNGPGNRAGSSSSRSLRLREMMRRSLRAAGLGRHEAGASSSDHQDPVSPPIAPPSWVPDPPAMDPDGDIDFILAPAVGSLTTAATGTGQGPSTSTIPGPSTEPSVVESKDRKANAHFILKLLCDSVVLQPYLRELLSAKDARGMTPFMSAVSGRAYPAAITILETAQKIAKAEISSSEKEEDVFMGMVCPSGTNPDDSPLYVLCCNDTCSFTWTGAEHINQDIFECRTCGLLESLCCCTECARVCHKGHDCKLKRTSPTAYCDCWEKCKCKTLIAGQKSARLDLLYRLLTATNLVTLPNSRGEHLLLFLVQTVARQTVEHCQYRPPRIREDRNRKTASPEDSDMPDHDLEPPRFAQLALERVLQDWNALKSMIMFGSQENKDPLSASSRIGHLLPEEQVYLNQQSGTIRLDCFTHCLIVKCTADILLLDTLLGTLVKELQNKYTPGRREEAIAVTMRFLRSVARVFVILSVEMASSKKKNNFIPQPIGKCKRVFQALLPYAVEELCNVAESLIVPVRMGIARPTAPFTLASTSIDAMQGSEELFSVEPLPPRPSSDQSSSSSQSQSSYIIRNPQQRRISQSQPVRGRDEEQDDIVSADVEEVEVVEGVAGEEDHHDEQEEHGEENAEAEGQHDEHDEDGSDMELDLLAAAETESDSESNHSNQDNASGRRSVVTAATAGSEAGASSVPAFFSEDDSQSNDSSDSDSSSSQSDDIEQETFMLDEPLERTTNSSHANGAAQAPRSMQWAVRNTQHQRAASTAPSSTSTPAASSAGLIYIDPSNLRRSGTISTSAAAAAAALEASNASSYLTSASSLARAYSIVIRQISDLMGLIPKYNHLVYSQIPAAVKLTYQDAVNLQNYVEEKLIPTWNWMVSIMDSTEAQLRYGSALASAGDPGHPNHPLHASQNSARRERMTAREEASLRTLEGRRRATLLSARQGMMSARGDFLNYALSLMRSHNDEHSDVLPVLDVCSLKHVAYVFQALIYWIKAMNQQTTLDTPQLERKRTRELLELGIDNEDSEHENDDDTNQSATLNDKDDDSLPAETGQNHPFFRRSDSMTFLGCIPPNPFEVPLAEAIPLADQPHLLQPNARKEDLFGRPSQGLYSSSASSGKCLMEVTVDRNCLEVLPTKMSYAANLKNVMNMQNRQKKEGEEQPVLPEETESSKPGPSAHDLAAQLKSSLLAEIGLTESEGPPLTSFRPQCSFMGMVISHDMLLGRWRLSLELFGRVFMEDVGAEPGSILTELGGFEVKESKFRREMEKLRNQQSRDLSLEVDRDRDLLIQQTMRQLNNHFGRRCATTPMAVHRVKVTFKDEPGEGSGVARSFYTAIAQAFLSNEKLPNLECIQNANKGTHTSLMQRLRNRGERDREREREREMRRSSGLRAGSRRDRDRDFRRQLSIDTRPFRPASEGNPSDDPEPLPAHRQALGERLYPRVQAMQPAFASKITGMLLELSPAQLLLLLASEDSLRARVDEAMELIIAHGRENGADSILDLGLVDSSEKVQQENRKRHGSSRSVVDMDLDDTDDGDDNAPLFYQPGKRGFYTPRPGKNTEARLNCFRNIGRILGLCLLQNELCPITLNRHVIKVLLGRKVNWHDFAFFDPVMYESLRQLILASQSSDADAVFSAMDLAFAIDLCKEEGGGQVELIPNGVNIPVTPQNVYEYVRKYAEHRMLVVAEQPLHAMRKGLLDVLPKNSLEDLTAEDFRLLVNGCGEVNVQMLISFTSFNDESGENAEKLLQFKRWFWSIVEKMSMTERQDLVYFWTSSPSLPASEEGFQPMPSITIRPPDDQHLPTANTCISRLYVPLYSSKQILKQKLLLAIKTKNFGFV
UniProt Q13263: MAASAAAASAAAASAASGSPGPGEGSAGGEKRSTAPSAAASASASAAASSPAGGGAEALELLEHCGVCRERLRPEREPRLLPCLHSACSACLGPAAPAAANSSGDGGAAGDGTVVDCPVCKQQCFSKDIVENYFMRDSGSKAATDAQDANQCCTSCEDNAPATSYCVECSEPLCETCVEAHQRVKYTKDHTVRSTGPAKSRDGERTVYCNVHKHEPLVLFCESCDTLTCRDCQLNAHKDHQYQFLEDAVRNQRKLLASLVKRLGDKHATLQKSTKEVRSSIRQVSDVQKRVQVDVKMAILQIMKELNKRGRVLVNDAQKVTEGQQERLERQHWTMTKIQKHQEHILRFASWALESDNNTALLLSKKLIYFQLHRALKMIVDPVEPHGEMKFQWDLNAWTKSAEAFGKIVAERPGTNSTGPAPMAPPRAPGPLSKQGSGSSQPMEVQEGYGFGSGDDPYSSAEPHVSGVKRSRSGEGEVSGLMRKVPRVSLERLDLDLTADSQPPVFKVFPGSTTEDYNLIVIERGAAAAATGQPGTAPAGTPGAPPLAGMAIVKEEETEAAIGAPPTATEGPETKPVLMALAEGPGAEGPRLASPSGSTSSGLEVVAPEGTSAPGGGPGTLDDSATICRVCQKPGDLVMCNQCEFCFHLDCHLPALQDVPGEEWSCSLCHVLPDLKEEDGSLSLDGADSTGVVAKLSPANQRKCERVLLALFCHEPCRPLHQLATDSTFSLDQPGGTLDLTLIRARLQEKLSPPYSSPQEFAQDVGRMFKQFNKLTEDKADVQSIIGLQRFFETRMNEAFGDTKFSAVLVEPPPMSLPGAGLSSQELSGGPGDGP
UniProt P04406: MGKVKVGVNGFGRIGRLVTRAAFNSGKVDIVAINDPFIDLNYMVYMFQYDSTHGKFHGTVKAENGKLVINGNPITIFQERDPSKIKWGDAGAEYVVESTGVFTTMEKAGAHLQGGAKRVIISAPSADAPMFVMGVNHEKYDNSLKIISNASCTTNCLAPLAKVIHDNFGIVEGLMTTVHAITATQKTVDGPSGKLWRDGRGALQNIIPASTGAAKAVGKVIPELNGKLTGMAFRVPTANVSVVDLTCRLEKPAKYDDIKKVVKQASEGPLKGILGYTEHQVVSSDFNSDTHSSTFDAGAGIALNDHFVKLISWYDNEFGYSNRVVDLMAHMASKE

No constants are given. Whether binding was seen depends on the method and setting. Binding seen in cells or lysates may run through a third protein. Some entries that bind do so weakly or less than the wild type.

In assay [1] the target is FLAG-UBR5 (Ubiquitin Protein Ligase E3 Component N-Recognin 5) (UniProt O95071). As to the kind of experiment: co-IP; FLAG-tagged bait or vector expressed in HEK293T cells for 24 h (in some cases then poly (I:C) for 12 h); whole-cell extract in 150 mM NaCl, 50 mM Tris pH 7.5, 1 mM EDTA, 0.5% NP40, 10% glycerol; anti-FLAG magnetic beads overnight at 4 °C; eluted with 3x FLAG peptide; immunoblot. Background: Immunoblotting shows a protein as a band on a membrane.

In another assay the target is FLAG-TRIM28 (UniProt Q13263). The description is as above.

Consider “endogenous TRIM28 (Tripartite Motif Protein 28) (from UniProt Q13263 1-835)”, for which the binding entry in assay [1] was “binds”. Take “endogenous UBR5 (from UniProt O95071 1-2799) (enzyme)”: the binding entry in the assay with FLAG-TRIM28 is on record as “binds”.

On to GAPDH (from UniProt P04406 1-335), for which, in assay [1], the binding result was “no binding”.
